Results on one compound are retold here after patent US7682403B2, “Method for treating laundry” (Ecolab Inc., priority 2004, dated 2010).

This data set is described as follows: Ozone bleaching of tea stained swatches as a function of pH (Example 4). Particulars: ozonated water 67 to 69° F., 1 to 2 ppm dissolved ozone, 15 or 30 minutes.

In the case of `O=[O+][O-]` [ozone], the “bleaching (% Soil Removal)” value is given as “minimal” (pH=4.0 (acid condition)) and “minimal” (pH=9.0 (basic condition)).
